Test results from paper doi:10.1101/777771.
These are yes or no findings as the source states them, for the method shown. In cells and extracts the contact can be indirect. Here binding means that the protein was enriched with, or labelled near, the bait; the list need not be complete.

The chains behind the UniProt entries cited, without tags or fusion partners.
UniProt Q13263: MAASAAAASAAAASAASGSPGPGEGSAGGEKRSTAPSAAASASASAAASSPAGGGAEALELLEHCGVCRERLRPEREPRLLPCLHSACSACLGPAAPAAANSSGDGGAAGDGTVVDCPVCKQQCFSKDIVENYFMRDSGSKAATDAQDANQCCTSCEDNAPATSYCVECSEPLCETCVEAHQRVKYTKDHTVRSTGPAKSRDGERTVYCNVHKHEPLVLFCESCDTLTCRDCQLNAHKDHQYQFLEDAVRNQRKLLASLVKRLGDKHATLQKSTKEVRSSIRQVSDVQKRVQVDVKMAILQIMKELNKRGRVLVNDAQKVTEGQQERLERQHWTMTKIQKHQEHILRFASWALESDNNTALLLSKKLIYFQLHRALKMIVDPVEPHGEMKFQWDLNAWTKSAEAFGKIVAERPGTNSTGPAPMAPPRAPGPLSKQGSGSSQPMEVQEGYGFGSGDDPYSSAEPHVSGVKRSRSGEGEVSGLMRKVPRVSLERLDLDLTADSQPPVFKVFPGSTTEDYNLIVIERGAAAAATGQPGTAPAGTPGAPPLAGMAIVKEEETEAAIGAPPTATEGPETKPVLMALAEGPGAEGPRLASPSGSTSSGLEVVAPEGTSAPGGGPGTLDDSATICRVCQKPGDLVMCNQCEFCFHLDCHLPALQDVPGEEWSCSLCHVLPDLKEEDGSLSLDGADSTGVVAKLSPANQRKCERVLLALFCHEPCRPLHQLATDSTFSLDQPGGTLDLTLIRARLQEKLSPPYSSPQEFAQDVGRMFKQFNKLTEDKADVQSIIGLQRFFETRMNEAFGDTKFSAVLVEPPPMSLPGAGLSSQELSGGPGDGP
UniProt P50750: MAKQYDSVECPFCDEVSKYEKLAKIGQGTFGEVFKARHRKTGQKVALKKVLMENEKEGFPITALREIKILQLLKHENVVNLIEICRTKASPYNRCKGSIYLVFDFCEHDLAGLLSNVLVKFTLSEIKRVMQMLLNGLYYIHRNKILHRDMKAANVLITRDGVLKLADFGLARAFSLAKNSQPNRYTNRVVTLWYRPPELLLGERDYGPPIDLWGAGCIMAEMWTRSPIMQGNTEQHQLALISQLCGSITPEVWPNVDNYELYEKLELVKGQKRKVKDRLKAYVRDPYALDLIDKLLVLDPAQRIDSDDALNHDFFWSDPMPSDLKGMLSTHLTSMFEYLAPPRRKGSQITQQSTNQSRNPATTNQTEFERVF
UniProt O94992: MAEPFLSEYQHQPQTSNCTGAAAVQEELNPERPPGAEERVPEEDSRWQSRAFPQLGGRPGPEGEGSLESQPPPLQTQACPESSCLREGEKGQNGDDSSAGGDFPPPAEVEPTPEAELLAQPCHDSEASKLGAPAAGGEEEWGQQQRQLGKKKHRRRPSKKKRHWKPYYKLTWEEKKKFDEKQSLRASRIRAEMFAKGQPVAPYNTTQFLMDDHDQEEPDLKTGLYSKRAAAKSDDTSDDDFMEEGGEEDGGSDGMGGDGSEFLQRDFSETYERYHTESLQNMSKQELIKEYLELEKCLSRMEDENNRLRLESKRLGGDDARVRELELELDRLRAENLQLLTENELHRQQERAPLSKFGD

Target: BioID2-TRIM28 (UniProt Q13263)
Experiment: proximity labelling

CDK9 (from UniProt P50750 1-372)
binding: binds

HEXIM1 (from UniProt O94992 1-359)
binding: binds
